# Results from the supplement of paper PMC8728848.
# The other results are listed elsewhere or left out.
# How the values were obtained:
# Assay in all cases: glycan array binding signal (z-score within array); higher = stronger binding
# Conditions in all cases: glycan notation: IUPAC condensed, linker removed
# Gal3S(b1-4)Glc = biological target: Gal3S(b1-4)Glc
# In short: (§1)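 Glycan array data came from 3228 arrays in the Consortium for Functional Glycomics database, and only arrays with an available protein sequence were kept. Glycan names were put into IUPAC-condensed notation, and columns mapping to the same glycan were averaged. The binding signal is a within-array Z-score, averaged across arrays of one protein sequence run at different concentrations or buffers and across linkers. A negative Z-score can be read as non-binding.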
# Gal3S(b1-4)Glc6S = biological target: Gal3S(b1-4)Glc6S
# In short: as §1
# Gal3S(b1-4)GlcNAc = biological target: Gal3S(b1-4)GlcNAc
# In short: as §1
# [1] = biological target: Gal3S(b1-4)[Fuc(a1-3)]Glc6S
# In short: as §1
# [2] = biological target: Gal3S(b1-4)[Fuc(a1-3)]GlcNAc
# In short: as §1
# [3] = biological target: Gal3S(b1-4)[Fuc(a1-3)]GlcNAc6S
# In short: as §1
# Gal3S4S(b1-4)GlcNAc = biological target: Gal3S4S(b1-4)GlcNAc
# In short: as §1
# Gal3S6S(b1-4)GlcNAc = biological target: Gal3S6S(b1-4)GlcNAc
# In short: as §1
# Gal3S6S(b1-4)GlcNAc6S = biological target: Gal3S6S(b1-4)GlcNAc6S
# In short: as §1
# Gal4S(b1-4)GlcNAc = biological target: Gal4S(b1-4)GlcNAc
# In short: as §1
# Gal4S6S(b1-4)GlcNAc = biological target: Gal4S6S(b1-4)GlcNAc
# In short: as §1
# Gal6P(b1-4)GlcNAc = biological target: Gal6P(b1-4)GlcNAc
# In short: as §1
# Gal6S(b1-3)GlcNAc = biological target: Gal6S(b1-3)GlcNAc
# In short: as §1
# Gal6S(b1-3)GlcNAc6S = biological target: Gal6S(b1-3)GlcNAc6S
# In short: as §1
# Gal6S(b1-4)Glc = biological target: Gal6S(b1-4)Glc
# In short: as §1
# Gal6S(b1-4)Glc6S = biological target: Gal6S(b1-4)Glc6S
# In short: as §1
# Gal6S(b1-4)GlcNAc = biological target: Gal6S(b1-4)GlcNAc
# In short: as §1
# Gal6S(b1-4)GlcNAc6S = biological target: Gal6S(b1-4)GlcNAc6S
# In short: as §1
# GalNAc(a1-3)Gal = biological target: GalNAc(a1-3)Gal
# In short: as §1
# GalNAc(a1-3)GalNAc = biological target: GalNAc(a1-3)GalNAc
# In short: as §1
# [4] = biological target: GalNAc(a1-3)GalNAc(b1-3)Gal(a1-4)Gal(b1-4)Glc
# In short: as §1
# [5] = biological target: GalNAc(a1-3)GalNAc(b1-3)Gal(a1-4)Gal(b1-4)GlcNAc
# In short: as §1
# GalNAc(b1-3)Gal = biological target: GalNAc(b1-3)Gal
# In short: as §1
# [6] = biological target: GalNAc(b1-3)Gal(a1-4)Gal(b1-4)GlcNAc
# In short: as §1
# [7] = biological target: GalNAc(b1-3)Gal(a1-4)Gal(b1-4)GlcNAc(b1-3)Gal(b1-4)Glc
# In short: as §1
# [8] = biological target: GalNAc(b1-3)Gal(a1-6)Gal(b1-4)Glc
# In short: as §1
# GalNAc(b1-3)GalNAc = biological target: GalNAc(b1-3)GalNAc
# In short: as §1
# GalNAc(b1-3)GlcNAc = biological target: GalNAc(b1-3)GlcNAc
# In short: as §1
# GalNAc(b1-4)Gal(b1-4)Glc = biological target: GalNAc(b1-4)Gal(b1-4)Glc
# In short: as §1
# GalNAc(b1-4)GlcNAc = biological target: GalNAc(b1-4)GlcNAc
# In short: as §1
# [9] = biological target: GalNAc(b1-4)GlcNAc(b1-2)Man
# In short: as §1
# [10] = biological target: GalNAc(b1-4)GlcNAc(b1-2)Man(a1-3)[GalNAc(b1-4)GlcNAc(b1-2)Man(a1-6)]Man(b1-4)GlcNAc(b1-4)GlcNAc
# In short: as §1
# [11] = biological target: GalNAc(b1-4)GlcNAc(b1-3)GalNAc(b1-4)GlcNAc
# In short: as §1
# GalNAc(b1-4)GlcNAc6S = biological target: GalNAc(b1-4)GlcNAc6S
# In short: as §1
# GalNAc(b1-6)GalNAc = biological target: GalNAc(b1-6)GalNAc
# In short: as §1
# GalNAc3S(b1-4)GlcNAc = biological target: GalNAc3S(b1-4)GlcNAc
# In short: as §1
# GalNAc3S(b1-4)GlcNAc3S = biological target: GalNAc3S(b1-4)GlcNAc3S
# In short: as §1
# [12] = biological target: GalNAc3S(b1-4)[Fuc(a1-3)]GlcNAc
# In short: as §1
# GalNAc4S6S(b1-4)GlcNAc = biological target: GalNAc4S6S(b1-4)GlcNAc
# In short: as §1
# GalNAc6S(b1-4)GlcNAc = biological target: GalNAc6S(b1-4)GlcNAc
# In short: as §1
# Glc(a1-4)Glc = biological target: Glc(a1-4)Glc
# In short: as §1
# [13] = biological target: Glc(a1-4)Glc(a1-4)Glc(a1-4)Glc
# In short: as §1
# Glc(a1-6)Glc(a1-6)Glc = biological target: Glc(a1-6)Glc(a1-6)Glc
# In short: as §1
# [14] = biological target: Glc(a1-6)Glc(a1-6)Glc(a1-6)Glc
# In short: as §1
# Glc(b1-4)Glc = biological target: Glc(b1-4)Glc
# In short: as §1
binder,measurement,setting,value
PhypaEULS3 (Physcomitrella patens) (protein) MLPVRLHCKADPNFNLAAVPGQGPVMVPFSPNDDFQVWYKDVTMSTRVKDETGSSAFSLINKATGQALRHAPEDLAQCLLADYDSNALDQTVLWTMSEDMGQGYCCIRLASQITRNLDVFRGDKKSGGVKEGSPVITFAWKKQDNQIWKMITAILEQKLISEEDLNSAVDHHHHHH,glycan array binding signal (z-score),Gal3S(b1-4)Glc,-1.2
same,glycan array binding signal (z-score),Gal3S(b1-4)Glc6S,-0.039
same,glycan array binding signal (z-score),Gal3S(b1-4)GlcNAc,0.855
same,glycan array binding signal (z-score),[1],0.258
same,glycan array binding signal (z-score),[2],1
same,glycan array binding signal (z-score),[3],2.66
same,glycan array binding signal (z-score),Gal3S4S(b1-4)GlcNAc,-0.136
same,glycan array binding signal (z-score),Gal3S6S(b1-4)GlcNAc,0.683
same,glycan array binding signal (z-score),Gal3S6S(b1-4)GlcNAc6S,0.551
same,glycan array binding signal (z-score),Gal4S(b1-4)GlcNAc,-1.71
same,glycan array binding signal (z-score),Gal4S6S(b1-4)GlcNAc,-0.245
same,glycan array binding signal (z-score),Gal6P(b1-4)GlcNAc,0.132
same,glycan array binding signal (z-score),Gal6S(b1-3)GlcNAc,1.98
same,glycan array binding signal (z-score),Gal6S(b1-3)GlcNAc6S,4.14
same,glycan array binding signal (z-score),Gal6S(b1-4)Glc,0.381
same,glycan array binding signal (z-score),Gal6S(b1-4)Glc6S,-0.328
same,glycan array binding signal (z-score),Gal6S(b1-4)GlcNAc,1.1
same,glycan array binding signal (z-score),Gal6S(b1-4)GlcNAc6S,1.27
same,glycan array binding signal (z-score),GalNAc(a1-3)Gal,-0.459
same,glycan array binding signal (z-score),GalNAc(a1-3)GalNAc,-0.427
same,glycan array binding signal (z-score),[4],0.614
same,glycan array binding signal (z-score),[5],0.114
same,glycan array binding signal (z-score),GalNAc(b1-3)Gal,-0.103
same,glycan array binding signal (z-score),[6],-1.89
same,glycan array binding signal (z-score),[7],-0.317
same,glycan array binding signal (z-score),[8],-0.536
same,glycan array binding signal (z-score),GalNAc(b1-3)GalNAc,0.246
same,glycan array binding signal (z-score),GalNAc(b1-3)GlcNAc,-0.207
same,glycan array binding signal (z-score),GalNAc(b1-4)Gal(b1-4)Glc,0.319
same,glycan array binding signal (z-score),GalNAc(b1-4)GlcNAc,-1.91
same,glycan array binding signal (z-score),[9],-0.619
same,glycan array binding signal (z-score),[10],0.448
same,glycan array binding signal (z-score),[11],-0.097
same,glycan array binding signal (z-score),GalNAc(b1-4)GlcNAc6S,1.29
same,glycan array binding signal (z-score),GalNAc(b1-6)GalNAc,0.575
same,glycan array binding signal (z-score),GalNAc3S(b1-4)GlcNAc,-0.059
same,glycan array binding signal (z-score),GalNAc3S(b1-4)GlcNAc3S,2.12
same,glycan array binding signal (z-score),[12],-0.804
same,glycan array binding signal (z-score),GalNAc4S6S(b1-4)GlcNAc,2.6
same,glycan array binding signal (z-score),GalNAc6S(b1-4)GlcNAc,1.13
same,glycan array binding signal (z-score),Glc(a1-4)Glc,-0.811
same,glycan array binding signal (z-score),[13],-1.9
same,glycan array binding signal (z-score),Glc(a1-6)Glc(a1-6)Glc,-0.255
same,glycan array binding signal (z-score),[14],0.847
same,glycan array binding signal (z-score),Glc(b1-4)Glc,0.754

# Two successive records out of the list so far, quoted:
binder,measurement,setting,value
PhypaEULS3 (Physcomitrella patens) (protein) MLPVRLHCKADPNFNLAAVPGQGPVMVPFSPNDDFQVWYKDVTMSTRVKDETGSSAFSLINKATGQALRHAPEDLAQCLLADYDSNALDQTVLWTMSEDMGQGYCCIRLASQITRNLDVFRGDKKSGGVKEGSPVITFAWKKQDNQIWKMITAILEQKLISEEDLNSAVDHHHHHH,glycan array binding signal (z-score),Gal6S(b1-4)GlcNAc,1.1
same,glycan array binding signal (z-score),Gal6S(b1-4)GlcNAc6S,1.27
